Here are results for two sequences from publication PMC6544635.

Chains of the proteins cited; added tags and fusions are not shown. A line that says so, or that is headed by a name, gives the form on record, which may keep a tag or linker.
MdRAV1-His (Malus domestica), one chain, as listed by the source: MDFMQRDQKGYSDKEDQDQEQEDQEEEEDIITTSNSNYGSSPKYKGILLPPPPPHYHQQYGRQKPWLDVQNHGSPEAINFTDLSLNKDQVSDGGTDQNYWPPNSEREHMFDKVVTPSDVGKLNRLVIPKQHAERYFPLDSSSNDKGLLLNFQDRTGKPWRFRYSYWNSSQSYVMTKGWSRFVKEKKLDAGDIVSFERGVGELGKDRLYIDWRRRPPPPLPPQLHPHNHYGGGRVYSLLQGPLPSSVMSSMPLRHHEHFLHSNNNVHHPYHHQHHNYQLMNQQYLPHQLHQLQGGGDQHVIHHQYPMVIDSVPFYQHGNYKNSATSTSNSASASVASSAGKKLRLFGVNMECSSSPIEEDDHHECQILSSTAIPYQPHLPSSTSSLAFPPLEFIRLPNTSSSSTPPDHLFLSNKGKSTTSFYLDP

The exact form of at least one protein or probe is not confirmed.

This series deals with MdRAV1-His (Malus domestica). Briefly: EMSA. Particulars: EMSA as described by Xie et al. (ref 61); pH and temperature not given; recombinant protein; protein details: His (pET-32a(+) vector); label: biotin. For orientation: Mobility shift assays separate free from complexed probe on a gel.

Turning to “TATAATTGTACCAACAACTTATTTATAGT (double strand) [MdABI4 promoter probe P1]”, the binding result is listed as “binds”. Take “AATTATTCAAGAACAACAAAATAAGTAAAA (double strand) [MdABI3 promoter probe P1]”: the binding result was “binds”.
